Experimental data: PMC9106661
These are yes or no findings as the source states them, for the method shown. For some assays here: Binding seen in cells or lysates may run through a third protein. Some binding calls cover weakened binding; strength is not graded here. For some assays here: Where a sequence is shown, tags or fusion partners need not be part of it.

By UniProt entry, the sequences of proteins in these tests, tags left out. Where a name states a change or a piece, a line headed by the entry shows the natural chain unless it says otherwise. Residues count along the entry.
UniProt Q96H55: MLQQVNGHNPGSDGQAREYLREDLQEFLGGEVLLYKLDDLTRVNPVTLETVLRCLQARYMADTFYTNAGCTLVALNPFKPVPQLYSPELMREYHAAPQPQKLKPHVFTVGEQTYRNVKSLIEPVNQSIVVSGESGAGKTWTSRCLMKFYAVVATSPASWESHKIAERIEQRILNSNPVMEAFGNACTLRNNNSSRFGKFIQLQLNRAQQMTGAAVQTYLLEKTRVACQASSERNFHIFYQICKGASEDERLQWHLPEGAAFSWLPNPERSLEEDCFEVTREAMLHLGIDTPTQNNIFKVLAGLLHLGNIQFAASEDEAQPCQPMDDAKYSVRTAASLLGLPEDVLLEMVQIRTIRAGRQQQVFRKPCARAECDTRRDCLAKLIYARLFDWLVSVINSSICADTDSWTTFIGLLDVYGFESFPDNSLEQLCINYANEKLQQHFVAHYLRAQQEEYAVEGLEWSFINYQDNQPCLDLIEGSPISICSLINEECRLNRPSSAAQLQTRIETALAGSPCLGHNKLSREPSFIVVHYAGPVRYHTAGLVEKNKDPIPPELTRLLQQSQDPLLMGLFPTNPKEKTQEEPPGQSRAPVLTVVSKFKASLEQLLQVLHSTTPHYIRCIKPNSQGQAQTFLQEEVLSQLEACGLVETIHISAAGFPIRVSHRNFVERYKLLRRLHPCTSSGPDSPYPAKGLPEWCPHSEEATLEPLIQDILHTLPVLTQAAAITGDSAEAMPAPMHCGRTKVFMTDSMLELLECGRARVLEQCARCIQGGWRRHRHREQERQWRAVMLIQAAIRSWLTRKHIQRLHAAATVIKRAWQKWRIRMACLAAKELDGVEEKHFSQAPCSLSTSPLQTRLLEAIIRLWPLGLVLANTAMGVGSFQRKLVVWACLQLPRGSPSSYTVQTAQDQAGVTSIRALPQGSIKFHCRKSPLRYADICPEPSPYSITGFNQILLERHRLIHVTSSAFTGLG
MBP-Myo19^824-970-Flag: residues 824-970 of Q96H55

Tests used:
[1] = biological target: full length (FL) Myo19 (1-970 aa)-Flag (human) (UniProt Q96H55); test: co-IP; C-terminally Flag-tagged Myo19 truncations expressed in HEK293T cells, endogenous partners detected by western blot
[2] = biological target: Myosin 19 (human (endogenous in MDA-MB-231)) (UniProt Q96H55); test: co-IP; endogenous proteins in MDA-MB-231 lysate (150 mM NaCl, 25 mM Tris-HCl, 0.5% NP-40, pH 7.4), antibody and protein A/G beads at 4 °C, western blot; WT, Myo19 KO, Sam50 knockdown and Mic60-depleted cells
[3] = biological target: Myo19-EGFP (knock-in) (human (endogenous in MDA-MB-231)) (UniProt Q96H55); test: proximity ligation; Duolink kit; Myo19-EGFP knock-in cells fixed with methanol; anti-GFP and anti-Sam50 antibodies
[4] = biological target: MBP-Myo19^824-970-Flag (human) (UniProt Q96H55); test: pull-down; purified proteins incubated with Myo19^824-970 and Flag antibody in IP lysis buffer (150 mM NaCl, 25 mM Tris-HCl, 0.5% NP-40, pH 7.4) at 4 °C overnight, protein A/G beads, western blot; both purified
[5] = biological target: Myo19 (BiFC construct) (human) (UniProt Q96H55); test: split reporter; BiFC in control and Miro1/2 double knockout cells

B1: Sam50 (protein, UniProt Q9Y512 1-469)
chain: MGTVHARSLEPLPSSGPDFGGLGEEAEFVEVEPEAKQEILENKDVVVQHVHFDGLGRTKDDIIICEIGDVFKAKNLIEVMRKSHEAREKLLRLGIFRQVDVLIDTCQGDDALPNGLDVTFEVTELRRLTGSYNTMVGNNEGSMVLGLKLPNLLGRAEKVTFQFSYGTKETSYGLSFFKPRPGNFERNFSVNLYKVTGQFPWSSLRETDRGMSAEYSFPIWKTSHTVKWEGVWRELGCLSRTASFAVRKESGHSLKSSLSHAMVIDSRNSSILPRRGALLKVNQELAGYTGGDVSFIKEDFELQLNKQLIFDSVFSASFWGGMLVPIGDKPSSIADRFYLGGPTSIRGFSMHSIGPQSEGDYLGGEAYWAGGLHLYTPLPFRPGQGGFGELFRTHFFLNAGNLCNLNYGEGPKAHIRKLAECIRWSYGAGIVLRLGNIARLELNYCVPMGVQTGDRICDGVQFGAGIRFL
[1]
  binding: binds
[2]
  binding: binds
[3]
  binding: binds

B2: His-MBP-MTX3 (protein, UniProt Q5HYI7 1-312)
chain: MAAPLELSCWGGGWGLPSVHSESLVVMAYAKFSGAPLKVNVIDNTWRGSRGDVPILTTEDDMVSQPAKILNFLRKQKYNADYELSAKQGADTLAYIALLEEKLLPAVLHTFWVESDNYFTVTKPWFASQIPFPLSLILPGRMSKGALNRILLTRGQPPLYHLREVEAQIYRDAKECLNLLSNRLGTSQFFFGDTPSTLDAYVFGFLAPLYKVRFPKVQLQEHLKQLSNLCRFCDDILSSYFRLSLGGISPAGQETVDANLQKLTQLVNKESNLIEKMDDNLRQSPQLPPRKLPTLKLTPAEEENNSFQRLSP
[4]
  binding: binds

B3: Sam50 (BiFC construct) (protein, UniProt Q9Y512 1-469)
chain: B1 chain
[5]
  binding: binds
